Source: PMC7909837, “Function and Regulation of Chloroplast Peroxiredoxin IIE” (Antioxidants, 2021)
No constants are given. Whether binding was seen depends on the method and setting. Binding seen in cells or lysates may run through a third protein. Here binding means that the protein was enriched with, or labelled near, the bait; the list need not be complete. Where a sequence is shown, tags or fusion partners need not be part of it.

Chains of the proteins cited; added tags and fusions are not shown. Residues count along the entry.
UniProt Q9SKP6, residues 61-315: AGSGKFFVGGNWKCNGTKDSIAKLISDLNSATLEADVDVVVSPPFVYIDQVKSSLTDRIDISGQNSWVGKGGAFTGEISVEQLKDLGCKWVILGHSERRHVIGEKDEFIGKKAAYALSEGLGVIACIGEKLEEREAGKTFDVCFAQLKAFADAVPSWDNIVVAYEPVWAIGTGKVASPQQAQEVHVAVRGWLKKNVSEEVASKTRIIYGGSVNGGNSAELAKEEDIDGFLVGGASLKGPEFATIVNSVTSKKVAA
UniProt P34791, residues 80-260: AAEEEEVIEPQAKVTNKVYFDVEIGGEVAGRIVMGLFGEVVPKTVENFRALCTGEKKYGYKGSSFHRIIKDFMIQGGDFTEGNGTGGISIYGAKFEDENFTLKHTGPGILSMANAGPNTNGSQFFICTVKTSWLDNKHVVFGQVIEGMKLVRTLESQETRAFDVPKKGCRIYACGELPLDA
UniProt P37702, residues 20-541: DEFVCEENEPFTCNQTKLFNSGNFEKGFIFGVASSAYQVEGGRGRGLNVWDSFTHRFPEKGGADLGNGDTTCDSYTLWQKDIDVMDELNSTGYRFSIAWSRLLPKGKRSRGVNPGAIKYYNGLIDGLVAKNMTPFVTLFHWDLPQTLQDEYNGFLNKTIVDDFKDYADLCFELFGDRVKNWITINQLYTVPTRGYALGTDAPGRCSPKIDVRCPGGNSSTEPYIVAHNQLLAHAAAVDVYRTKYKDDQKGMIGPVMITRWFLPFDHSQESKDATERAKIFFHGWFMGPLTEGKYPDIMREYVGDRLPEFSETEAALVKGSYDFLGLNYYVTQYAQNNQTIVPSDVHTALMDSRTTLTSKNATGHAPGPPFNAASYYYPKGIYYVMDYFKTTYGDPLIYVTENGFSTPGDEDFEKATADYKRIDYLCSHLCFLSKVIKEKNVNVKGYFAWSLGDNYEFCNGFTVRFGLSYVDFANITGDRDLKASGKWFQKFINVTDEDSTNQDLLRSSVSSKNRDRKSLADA

T1: Peroxiredoxin IIE (PRX-IIE), wild type, His6-tagged recombinant (A. thaliana) (UniProt Q949U7)
T1 sequence: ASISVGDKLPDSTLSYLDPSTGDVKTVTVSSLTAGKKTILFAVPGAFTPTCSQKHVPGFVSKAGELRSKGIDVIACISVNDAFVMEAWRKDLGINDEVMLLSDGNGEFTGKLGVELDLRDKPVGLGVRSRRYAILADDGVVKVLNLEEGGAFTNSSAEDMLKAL


biological target: T1, Peroxiredoxin IIE (PRX-IIE), wild type, His6-tagged recombinant (A. thaliana); assay: affinity purification with mass spectrometry; reduced His-tagged PRX-IIE or PRX-IIE C146S (3 mg) bound to 1 mL Ni-NTA resin; A. thaliana leaf protein extract (about 40 mg) applied, RT, 1.5 h; washes 50 mM Tris-HCl pH 8.0 and with 200 mM NaCl; first elution 50 mM DTT, second elution 50 mM DTT + 500 mM imidazole; nano-LC ESI-QTOF-MS; Ni-NTA without PRX-IIE as control; only the target purified

Row | Molecule | binding
1 | Triosephosphate isomerase (from UniProt Q9SKP6 61-315) (enzyme) | binds
2 | Peptidyl-prolyl cis-trans isomerase CYP20-3 (from UniProt P34791 80-260) (enzyme) | binds
3 | Proline tRNA ligase (A. thaliana (endogenous in leaves)) (enzyme) | binds
4 | Myrosinase 1 (from UniProt P37702 20-541) (enzyme) | binds
5 | 14-3-3 χ (protein, UniProt P42643 1-267) MATPGASSARDEFVYMAKLAEQAERYEEMVEFMEKVAKAVDKDELTVEERNLLSVAYKNVIGARRASWRIISSIEQKEESRGNDDHVSLIRDYRSKIETELSDICDGILKLLDTILVPAAASGDSKVFYLKMKGDYHRYLAEFKSGQERKDAAEHTLTAYKAAQDIANSELAPTHPIRLGLALNFSVFYYEILNSPDRACNLAKQAFDEAIAELDTLGEESYKDSTLIMQLLRDNLTLWTSDMQDDVADDIKEAAPAAAKPADEQQS | binds
6 | Leucine aminopeptidase 1 (enzyme, UniProt P30184 1-520) MAHTLGLTQPNSTEPHKISFTAKEIDVIEWKGDILVVGVTEKDLAKDGNSKFENPILSKVDAHLSGLLAQVSSEEDFTGKPGQSTVLRLPGLGSKRIALIGLGQSVSSPVAFHSLGEAVATVSKASQSTSAAIVLASSVSDESKLSSVSALASGIVLGLFEDGRYKSESKKPSLKAVDIIGFGTGAEVEKKLKYAEDVSYGVIFGRELINSPANVLTPAVLAEEAAKVASTYSDVFTANILNEEQCKELKMGSYLAVAAASANPPHFIHLVYKPPNGSVKTKLALVGKGLTFDSGGYNIKTGPGCSIELMKFDMGGSAAVLGAAKAIGEIKPPGVEVHFIVAACENMISGTGMRPGDVITASNGKTIEVNNTDAEGRLTLADALVYACNQGVDKIVDLATLTGACVIALGTSMAGIYTPSDELAKEVIAASERSGEKLWRMPLEESYWEMMKSGVADMVNTGGRAGGSITAALFLKQFVSEKVQWMHIDMAGPVWNEKKKSGTGFGVATLVEWVQKNSSS | binds
7 | Magnesium-chelatase subunit ChII-2 (enzyme, UniProt Q5XF33 56-418) VMNVATEINSVEQAKKIDSKESARPVYPFAAIVGQDEMKLCLLLNVIDPKIGGVMIMGDRGTGKSTTVRSLVDLLPEITVVSGDPYNSDPRDPECMGKEVREKVQKGEELSVIETKINMVDLPLGATEDRVCGTIDIEKALTEGVKAFEPGLLAKANRGILYVDEVNLLDDHLVDVLLDSAASGWNTVEREGISISHPARFILIGSGNPEEGELRPQLLDRFGMHAQVGTVRDAELRVKIVEERARFDSNPKEFRETYQEEQLKLQEQITTARSNLSAVQIDQDLKVKISKVCAELDVDGLRGDMVINRAARALAALQGRDQVTAEDVGIVIPNCLRHRLRKDPLESMDSGILVTEKFYEVFT | binds
8 | MLP-like protein 43 (protein, UniProt Q9SSK5 1-158) MAEASSLVGKLETEVEIKASAKKFHHMFTERPHHVSKATPDKIHGCELHEGDWGKVGSIVIWKYVHDGKLTVGKNKIEAVDPEKNLITFKVLEGDLMNEYKSFAFTLQVTPKQGESGSIAHWHLEYEKISEEVAHPETLLQFCVEISKEIDEHLLAEE | binds
9 | Plastidial pyruvate kinase 2 (enzyme, UniProt Q9FLW9 64-579) SARVETEVIPVSPEDVPNREEQLERLLEMQQFGDTSVGMWSKPTVRRKTKIVCTVGPSTNTREMIWKLAEAGMNVARMNMSHGDHASHKKVIDLVKEYNAQTKDNTIAIMLDTKGPEVRSGDLPQPIMLDPGQEFTFTIERGVSTPSCVSVNYDDFVNDVEAGDMLLVDGGMMSFMVKSKTKDSVKCEVVDGGELKSRRHLNVRGKSATLPSITEKDWEDIKFGVENKVDFYAVSFVKDAQVVHELKKYLQNSGADIHVIVKIESADSIPNLHSIITASDGAMVARGDLGAELPIEEVPILQEEIINLCRSMGKAVIVATNMLESMIVHPTPTRAEVSDIAIAVREGADAVMLSGETAHGKFPLKAAGVMHTVALRTEATITSGEMPPNLGQAFKNHMSEMFAYHATMMSNTLGTSTVVFTRTGFMAILLSHYRPSGTIYAFTNEKKIQQRLALYQGVCPIYMEFTDDAEETFANALATLLKQGMVKKGEEIAIVQSGTQPIWRSQSTHNIQVRKV | binds
10 | Plastidial pyruvate kinase 3 (enzyme, UniProt Q93Z53 56-571) SIKISEDSRKPKAYAENGAFDVGVLDSSSYRLADSRTSSNDSRRKTKIVCTIGPSSSSREMIWKLAEAGMNVARLNMSHGDHASHQITIDLVKEYNSLFVDKAIAIMLDTKGPEVRSGDVPQPIFLEEGQEFNFTIKRGVSLKDTVSVNYDDFVNDVEVGDILLVDGGMMSLAVKSKTSDLVKCVVIDGGELQSRRHLNVRGKSATLPSITDKDWEDIKFGVDNQVDFYAVSFVKDAKVVHELKNYLKTCSADISVIVKIESADSIKNLPSIISACDGAMVARGDLGAELPIEEVPLLQEEIIRRCRSIHKPVIVATNMLESMINHPTPTRAEVSDIAIAVREGADAIMLSGETAHGKFPLKAVNVMHTVALRTEASLPVRTSASRTTAYKGHMGQMFAFHASIMANTLSSPLIVFTRTGSMAVLLSHYRPSATIFAFTNQRRIMQRLALYQGVMPIYMEFSDDAEDTYARSLKLLQDENMLKEGQHVTLVQSGSQPIWREESTHLIQVRKIKIGG | binds
11 | 14-3-3 λ (protein, UniProt P48349 1-248) MAATLGRDQYVYMAKLAEQAERYEEMVQFMEQLVTGATPAEELTVEERNLLSVAYKNVIGSLRAAWRIVSSIEQKEESRKNDEHVSLVKDYRSKVESELSSVCSGILKLLDSHLIPSAGASESKVFYLKMKGDYHRYMAEFKSGDERKTAAEDTMLAYKAAQDIAAADMAPTHPIRLGLALNFSVFYYEILNSSDKACNMAKQAFEEAIAELDTLGEESYKDSTLIMQLLRDNLTLWTSDMQEQMDEA | binds
12 | β-amylase 3 (enzyme, UniProt O23553 50-548) EMKFTHEKTFTPEGETLEKWEKLHVLSYPHSKNDASVPVFVMLPLDTVTMSGHLNKPRAMNASLMALKGAGVEGVMVDAWWGLVEKDGPMNYNWEGYAELIQMVQKHGLKLQVVMSFHQCGGNVGDSCSIPLPPWVLEEISKNPDLVYTDKSGRRNPEYISLGCDSVPVLRGRTPIQVYSDFMRSFRERFEGYIGGVIAEIQVGMGPCGELRYPSYPESNGTWRFPGIGEFQCYDKYMKSSLQAYAESIGKTNWGTSGPHDAGEYKNLPEDTEFFRRDGTWNSEYGKFFMEWYSGKLLEHGDQLLSSAKGIFQGSGAKLSGKVAGIHWHYNTRSHAAELTAGYYNTRNHDGYLPIAKMFNKHGVVLNFTCMEMKDGEQPEHANCSPEGLVKQVQNATRQAGTELAGENALERYDSSAFGQVVATNRSDSGNGLTAFTYLRMNKRLFEGQNWQQLVEFVKNMKEGGHGRRLSKEDTTGSDLYVGFVKGKIAENVEEAALV | binds
13 | β-carbonic anhydrase 2 (enzyme, UniProt P42737 72-331) RMGNESYEDAIEALKKLLIEKDDLKDVAAAKVKKITAELQAASSSDSKSFDPVERIKEGFVTFKKEKYETNPALYGELAKGQSPKYMVFACSDSRVCPSHVLDFHPGDAFVVRNIANMVPPFDKVKYAGVGAAIEYAVLHLKVENIVVIGHSACGGIKGLMSFPLDGNNSTDFIEDWVKICLPAKSKVLAESESSAFEDQCGRCEREAVNVSLANLLTYPFVREGVVKGTLALKGGYYDFVNGSFELWELQFGISPVHSI | binds
14 | Phosphoglycerate mutase-like protein 1 (protein, UniProt Q9FGF0 1-282) METGAGIGLYPLHRCKTIYLVRHAQGIHNVDGEKNYKAYMSHDYFDAELTQLGWKQVDSLRKHVHSSGLHKKIELVISSPLMRTLQTAVGVFGGEGYTDMSDVLPLMVANAGNSSRAAISSLNCPPVITEESCREHLGVHPCDQRRSISDYQFLFPAVDFSLIESEEDKLWKADVRETIEELAARGKKFLNWLWTRKEKEIAIVTHSGFLFHTLNALQNECHPDVKKEICGHFANCELRSMVIVDRSMLGSDSSVTDYPGKIPKGIDLPSDAVVDDNNIKVE | binds
15 | 14-3-3 υ, endogenous (protein, UniProt P42645 1-268) MSSDSSREENVYLAKLAEQAERYEEMVEFMEKVAKTVETEELTVEERNLLSVAYKNVIGARRASWRIISSIEQKEDSRGNSDHVSIIKDYRGKIETELSKICDGILNLLEAHLIPAASLAESKVFYLKMKGDYHRYLAEFKTGAERKEAAESTLVAYKSAQDIALADLAPTHPIRLGLALNFSVFYYEILNSSDRACSLAKQAFDEAISELDTLGEESYKDSTLIMQLLRDNLTLWTSDLNDEAGDDIKEAPKEVQKVDEQAQPPPSQ | binds
16 | 4-Hydroxy-tetrahydrodipicolinate synthase 1 (enzyme, UniProt Q9LZX6 40-365) AVVPNFHLPMRSLEDKNRTNTDDIRSLRVITAIKTPYLPDGRFDLQAYDDLVNTQIENGAEGVIVGGTTGEGQLMSWDEHIMLIGHTVNCFGGRIKVIGNTGSNSTREAIHATEQGFAMGMHGALHINPYYGKTSIEGMNAHFQTVLHMGPTIIYNVPGRTCQDIPPQVIFKLSQNPNMAGVKECVGNNRVEEYTEKGIVVWSGNDDQCHDSRWDHGATGVISVTSNLVPGLMRKLMFEGRNSALNAKLLPLMDWLFQEPNPIGVNTALAQLGVARPVFRLPYVPLPLSKRIEFVKLVKEIGREHFVGDRDVQVLDDDDFILIGRY | binds
17 | Fructose-bisphosphate aldolase 4 (enzyme, UniProt F4KGQ0 1-393) MSCFKSKFAGKSYFRRTFHSSIIQFHPQLSILIWHRRYSIIRTYELIANAAYIGTPGKGILAADESTGTIGKRFVSINVENVESNRRALRELLFTTPGALQYISGIILFEETLYQKTASGKLFVDVMKEAGVLPGIKVDKGTVELAGTNGETTTTGLDGLGDRCKKYYEAGARFAKWRAVLKIGNNEPSELAIHENAYGLARYAVICQENGLVPIVEPEILVDGSHDIEKCAYVTERVLAACYKALSDHHVILEGTLLKPNMVTPGSDSGSKVKPEVIAKHTVRALQRTVPAAVPAVVFLSGGQSEEEATVNLNAINQLKGKKPWSLTFSYGRALQQSTLKAWGGKEENVDKAQKAFLARAKANSEATLGGYKGDAQLGEGASESLHVKDYKY | binds
18 | Fructose-bisphosphate aldolase 5 (enzyme, UniProt O65581 1-358) MSAFVGKYADELIKTAKYIATPGKGILAADESTGTIGKRFASINVENIESNRQALRELLFTSPGTFPCLSGVILFEETLYQKTTDGKPFVELLMENGVIPGIKVDKGVVDLAGTNGETTTQGLDSLGARCQEYYKAGARFAKWRAVLKIGATEPSELSIQENAKGLARYAIICQENGLVPIVEPEVLTDGSHDIKKCAAVTETVLAAVYKALNDHHVLLEGTLLKPNMVTPGSDSPKVAPEVIAEYTVTALRRTVPPAVPGIVFLSGGQSEEEATLNLNAMNKLDVLKPWTLTFSFGRALQQSTLKAWAGKTENVAKAQATFLTRCKGNSDATLGKYTGGASGDSAASESLYEEGYKY | binds
